This is one part of the list.

Protein sequences, listed by entry. Tags and fused reporters are not part of them. Lines headed by an entry give the natural chain unless they say otherwise; changes in a name come on top.
UniProt Q96A54: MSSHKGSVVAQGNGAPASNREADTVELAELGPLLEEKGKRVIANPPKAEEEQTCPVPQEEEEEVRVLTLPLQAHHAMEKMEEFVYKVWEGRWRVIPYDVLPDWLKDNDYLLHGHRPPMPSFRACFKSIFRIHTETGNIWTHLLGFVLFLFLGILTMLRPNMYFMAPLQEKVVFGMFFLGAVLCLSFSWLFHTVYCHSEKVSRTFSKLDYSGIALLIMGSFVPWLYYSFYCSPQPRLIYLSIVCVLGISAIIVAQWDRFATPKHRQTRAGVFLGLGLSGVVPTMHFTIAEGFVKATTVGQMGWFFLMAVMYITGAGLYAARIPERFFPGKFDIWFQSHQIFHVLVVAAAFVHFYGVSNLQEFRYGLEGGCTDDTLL
UniProt Q9NP73: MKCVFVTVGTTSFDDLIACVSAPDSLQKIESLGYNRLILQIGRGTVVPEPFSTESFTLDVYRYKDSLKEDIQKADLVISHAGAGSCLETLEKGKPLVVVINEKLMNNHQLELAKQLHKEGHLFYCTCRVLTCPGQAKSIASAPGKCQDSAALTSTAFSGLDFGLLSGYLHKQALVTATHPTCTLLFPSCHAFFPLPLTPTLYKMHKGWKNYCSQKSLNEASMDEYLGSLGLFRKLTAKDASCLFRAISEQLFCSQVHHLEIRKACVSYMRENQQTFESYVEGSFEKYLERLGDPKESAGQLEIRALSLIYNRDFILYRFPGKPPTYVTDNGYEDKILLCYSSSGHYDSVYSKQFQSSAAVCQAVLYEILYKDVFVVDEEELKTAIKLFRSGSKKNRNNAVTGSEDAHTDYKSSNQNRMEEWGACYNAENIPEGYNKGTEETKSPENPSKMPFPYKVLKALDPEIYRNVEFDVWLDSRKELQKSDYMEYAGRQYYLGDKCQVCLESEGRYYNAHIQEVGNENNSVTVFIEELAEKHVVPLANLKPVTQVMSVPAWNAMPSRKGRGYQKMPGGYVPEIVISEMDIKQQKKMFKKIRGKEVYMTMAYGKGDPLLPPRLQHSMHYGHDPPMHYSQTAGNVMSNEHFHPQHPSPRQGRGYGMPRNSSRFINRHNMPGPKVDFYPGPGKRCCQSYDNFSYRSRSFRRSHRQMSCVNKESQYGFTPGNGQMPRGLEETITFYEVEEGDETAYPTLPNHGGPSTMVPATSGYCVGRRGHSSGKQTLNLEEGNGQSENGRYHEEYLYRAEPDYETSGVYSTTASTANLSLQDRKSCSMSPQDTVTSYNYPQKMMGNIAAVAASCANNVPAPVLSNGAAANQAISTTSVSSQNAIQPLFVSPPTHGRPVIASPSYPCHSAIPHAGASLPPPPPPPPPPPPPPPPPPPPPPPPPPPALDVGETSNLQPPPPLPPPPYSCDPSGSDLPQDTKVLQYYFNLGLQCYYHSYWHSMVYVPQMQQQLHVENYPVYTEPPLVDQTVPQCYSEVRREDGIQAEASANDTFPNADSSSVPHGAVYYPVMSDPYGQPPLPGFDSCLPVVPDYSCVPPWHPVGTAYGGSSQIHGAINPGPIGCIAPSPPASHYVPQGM
UniProt Q6RW13: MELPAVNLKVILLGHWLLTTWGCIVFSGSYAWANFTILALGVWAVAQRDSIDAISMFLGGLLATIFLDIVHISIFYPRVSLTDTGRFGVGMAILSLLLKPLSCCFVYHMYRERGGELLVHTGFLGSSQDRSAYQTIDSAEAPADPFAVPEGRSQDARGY
UniProt Q5I7T1: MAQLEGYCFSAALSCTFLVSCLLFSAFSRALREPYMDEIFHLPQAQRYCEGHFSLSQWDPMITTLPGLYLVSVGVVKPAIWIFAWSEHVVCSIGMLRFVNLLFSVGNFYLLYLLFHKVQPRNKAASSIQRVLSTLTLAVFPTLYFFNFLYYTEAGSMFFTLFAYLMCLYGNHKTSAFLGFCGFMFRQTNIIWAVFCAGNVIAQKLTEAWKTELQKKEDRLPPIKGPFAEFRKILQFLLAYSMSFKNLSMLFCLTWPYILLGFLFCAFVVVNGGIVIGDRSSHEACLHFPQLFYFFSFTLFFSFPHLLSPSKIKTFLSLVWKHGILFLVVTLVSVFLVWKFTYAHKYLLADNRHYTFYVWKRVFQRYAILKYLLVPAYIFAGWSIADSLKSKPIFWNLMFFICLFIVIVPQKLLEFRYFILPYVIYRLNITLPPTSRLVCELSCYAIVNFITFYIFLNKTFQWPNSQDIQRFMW
UniProt Q6NS38: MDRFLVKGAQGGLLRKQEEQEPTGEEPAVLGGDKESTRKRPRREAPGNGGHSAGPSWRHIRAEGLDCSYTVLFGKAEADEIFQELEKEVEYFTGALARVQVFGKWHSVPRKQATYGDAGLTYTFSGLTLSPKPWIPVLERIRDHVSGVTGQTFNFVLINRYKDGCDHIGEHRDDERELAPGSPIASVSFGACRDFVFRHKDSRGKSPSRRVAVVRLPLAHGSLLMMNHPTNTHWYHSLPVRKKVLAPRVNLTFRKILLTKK
UniProt Q13155: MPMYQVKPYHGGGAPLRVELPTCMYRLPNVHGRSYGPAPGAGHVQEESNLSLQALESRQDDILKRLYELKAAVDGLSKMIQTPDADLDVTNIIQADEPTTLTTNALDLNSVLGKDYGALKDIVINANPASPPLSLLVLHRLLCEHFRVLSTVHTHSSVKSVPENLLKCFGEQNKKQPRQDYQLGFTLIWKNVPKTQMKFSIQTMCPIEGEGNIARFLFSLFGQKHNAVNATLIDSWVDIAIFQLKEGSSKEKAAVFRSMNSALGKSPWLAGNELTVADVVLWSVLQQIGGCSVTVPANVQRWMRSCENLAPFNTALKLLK
UniProt P49419: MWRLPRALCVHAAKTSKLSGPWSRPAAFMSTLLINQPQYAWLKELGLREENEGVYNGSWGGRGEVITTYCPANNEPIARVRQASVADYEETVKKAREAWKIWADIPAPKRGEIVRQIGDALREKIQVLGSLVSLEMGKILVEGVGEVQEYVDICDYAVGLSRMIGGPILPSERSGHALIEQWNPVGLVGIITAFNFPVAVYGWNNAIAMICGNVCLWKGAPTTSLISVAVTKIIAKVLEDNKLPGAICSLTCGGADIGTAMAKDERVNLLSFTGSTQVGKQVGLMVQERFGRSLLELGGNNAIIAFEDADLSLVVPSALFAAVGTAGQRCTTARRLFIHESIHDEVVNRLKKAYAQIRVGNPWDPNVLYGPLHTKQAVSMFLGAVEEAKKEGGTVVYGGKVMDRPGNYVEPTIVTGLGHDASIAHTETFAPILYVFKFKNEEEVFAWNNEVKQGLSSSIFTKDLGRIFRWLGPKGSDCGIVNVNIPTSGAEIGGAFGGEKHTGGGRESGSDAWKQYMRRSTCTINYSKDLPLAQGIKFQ
UniProt P04075: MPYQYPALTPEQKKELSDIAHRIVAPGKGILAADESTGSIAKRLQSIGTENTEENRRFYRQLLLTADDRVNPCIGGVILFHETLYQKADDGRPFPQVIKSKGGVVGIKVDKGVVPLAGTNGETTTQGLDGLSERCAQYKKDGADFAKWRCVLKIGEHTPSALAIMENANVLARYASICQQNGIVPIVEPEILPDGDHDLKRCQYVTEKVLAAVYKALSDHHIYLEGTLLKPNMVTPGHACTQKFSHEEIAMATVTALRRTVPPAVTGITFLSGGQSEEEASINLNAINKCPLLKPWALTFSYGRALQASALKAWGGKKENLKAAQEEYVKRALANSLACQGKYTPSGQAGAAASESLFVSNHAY
UniProt Q3KRA9: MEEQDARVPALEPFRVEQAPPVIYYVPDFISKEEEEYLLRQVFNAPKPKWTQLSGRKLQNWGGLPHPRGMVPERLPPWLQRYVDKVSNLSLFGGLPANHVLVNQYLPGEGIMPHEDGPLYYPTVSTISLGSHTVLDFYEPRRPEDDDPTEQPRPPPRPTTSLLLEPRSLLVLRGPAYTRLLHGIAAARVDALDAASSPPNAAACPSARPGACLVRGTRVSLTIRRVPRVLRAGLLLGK
UniProt O75342: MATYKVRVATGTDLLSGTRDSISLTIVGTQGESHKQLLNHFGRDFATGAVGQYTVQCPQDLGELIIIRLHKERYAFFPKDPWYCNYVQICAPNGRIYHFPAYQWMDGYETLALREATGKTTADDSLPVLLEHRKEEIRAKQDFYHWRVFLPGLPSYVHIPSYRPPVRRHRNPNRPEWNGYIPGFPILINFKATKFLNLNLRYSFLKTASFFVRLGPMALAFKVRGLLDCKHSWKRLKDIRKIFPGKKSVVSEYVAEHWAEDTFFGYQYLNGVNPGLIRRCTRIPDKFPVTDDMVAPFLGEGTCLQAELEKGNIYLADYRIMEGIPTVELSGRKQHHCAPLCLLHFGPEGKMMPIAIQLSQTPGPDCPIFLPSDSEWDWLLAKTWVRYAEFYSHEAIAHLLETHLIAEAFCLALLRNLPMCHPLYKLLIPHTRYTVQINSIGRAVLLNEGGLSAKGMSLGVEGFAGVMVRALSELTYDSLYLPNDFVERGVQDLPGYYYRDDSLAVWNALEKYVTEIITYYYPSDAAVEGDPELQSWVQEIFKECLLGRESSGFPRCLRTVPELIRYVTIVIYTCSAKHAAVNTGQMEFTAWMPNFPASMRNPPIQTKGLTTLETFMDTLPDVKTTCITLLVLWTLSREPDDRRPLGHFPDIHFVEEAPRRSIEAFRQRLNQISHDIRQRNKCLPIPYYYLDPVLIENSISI
UniProt P30566: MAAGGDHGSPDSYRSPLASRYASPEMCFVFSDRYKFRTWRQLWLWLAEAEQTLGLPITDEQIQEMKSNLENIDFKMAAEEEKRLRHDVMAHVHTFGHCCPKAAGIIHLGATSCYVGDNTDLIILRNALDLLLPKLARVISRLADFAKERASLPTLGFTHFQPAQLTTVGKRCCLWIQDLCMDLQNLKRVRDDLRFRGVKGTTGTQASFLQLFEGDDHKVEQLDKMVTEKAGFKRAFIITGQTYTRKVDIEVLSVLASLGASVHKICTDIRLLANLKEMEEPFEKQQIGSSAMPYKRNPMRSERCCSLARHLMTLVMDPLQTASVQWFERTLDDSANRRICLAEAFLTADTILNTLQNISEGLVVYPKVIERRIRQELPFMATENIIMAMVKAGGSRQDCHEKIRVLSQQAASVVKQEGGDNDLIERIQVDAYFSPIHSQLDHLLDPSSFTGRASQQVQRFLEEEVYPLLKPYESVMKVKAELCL
UniProt Q9Y4W6: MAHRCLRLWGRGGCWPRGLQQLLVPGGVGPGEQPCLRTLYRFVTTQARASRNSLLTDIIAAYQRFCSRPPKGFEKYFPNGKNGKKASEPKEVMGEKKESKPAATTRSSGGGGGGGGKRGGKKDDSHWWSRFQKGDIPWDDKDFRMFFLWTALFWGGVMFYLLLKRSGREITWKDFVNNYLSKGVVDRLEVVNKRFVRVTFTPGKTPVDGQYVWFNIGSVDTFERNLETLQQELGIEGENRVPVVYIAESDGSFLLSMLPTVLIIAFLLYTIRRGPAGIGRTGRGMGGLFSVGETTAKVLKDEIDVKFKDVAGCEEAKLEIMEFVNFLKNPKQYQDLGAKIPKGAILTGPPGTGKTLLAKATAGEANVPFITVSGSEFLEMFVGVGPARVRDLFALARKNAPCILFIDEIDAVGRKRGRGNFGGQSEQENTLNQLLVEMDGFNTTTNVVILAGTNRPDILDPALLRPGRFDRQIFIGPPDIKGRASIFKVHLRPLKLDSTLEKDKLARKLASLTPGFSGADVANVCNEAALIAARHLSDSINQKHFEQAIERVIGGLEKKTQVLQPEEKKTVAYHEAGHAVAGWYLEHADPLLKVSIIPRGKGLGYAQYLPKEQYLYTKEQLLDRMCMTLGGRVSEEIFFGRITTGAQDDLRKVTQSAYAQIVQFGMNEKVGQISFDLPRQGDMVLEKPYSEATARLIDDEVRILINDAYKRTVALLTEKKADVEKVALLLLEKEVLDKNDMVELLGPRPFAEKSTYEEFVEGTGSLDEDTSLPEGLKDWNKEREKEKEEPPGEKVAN
UniProt Q96BJ3: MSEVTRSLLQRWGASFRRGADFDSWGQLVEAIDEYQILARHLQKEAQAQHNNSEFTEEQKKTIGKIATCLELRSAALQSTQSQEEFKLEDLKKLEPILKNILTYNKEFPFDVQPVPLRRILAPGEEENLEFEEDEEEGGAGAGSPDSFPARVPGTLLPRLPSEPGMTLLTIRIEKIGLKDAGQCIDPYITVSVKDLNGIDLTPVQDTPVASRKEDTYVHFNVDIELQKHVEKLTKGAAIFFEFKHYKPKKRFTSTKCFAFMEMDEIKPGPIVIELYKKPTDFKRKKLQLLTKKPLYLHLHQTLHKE
UniProt Q53H12: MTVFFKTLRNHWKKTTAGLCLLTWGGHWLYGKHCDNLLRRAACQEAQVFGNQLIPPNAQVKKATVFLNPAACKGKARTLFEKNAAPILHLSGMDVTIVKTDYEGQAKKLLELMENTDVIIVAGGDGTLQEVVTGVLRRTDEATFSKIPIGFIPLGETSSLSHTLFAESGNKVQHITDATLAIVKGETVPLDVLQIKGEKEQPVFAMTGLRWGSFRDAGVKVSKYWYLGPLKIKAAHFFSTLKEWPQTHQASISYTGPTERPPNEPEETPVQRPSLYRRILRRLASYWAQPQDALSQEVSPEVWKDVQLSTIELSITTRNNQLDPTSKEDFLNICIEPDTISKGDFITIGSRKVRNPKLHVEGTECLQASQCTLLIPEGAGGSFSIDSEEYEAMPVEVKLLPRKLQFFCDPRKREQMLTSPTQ

This is an account of results in the supplement of paper PMC10849652.

Compound in the test: c1cn2cc(-c3ccc4cn[nH]c4c3)nc(Nc3ccc(N4CCOCC4)cc3)c2n1 [entospletinib]
The test is described as follows: log2 fold change, soluble protein after heating vs DMSO (PISA); higher = thermal stabilisation; K562 cells, 10 uM, 30 min; active = over 0.2 and 3.5 SD of the protein, either way, in both replicates (recomputed). The gist of the method:
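For each measurement, 10 μM compound was applied for 30 min to K562 cells at 2×10^6 cells/mL. Aliquots were heated for 3 min across 48°C-58°C, pooled, and extracted in PBS with 0.5% NP-40 at 4°C; the supernatant after 21,000xg for 90 min was soluble protein. This was quantified by TMTpro 16plex LC-MS/MS with channel sums equalised, and thermal stability was reported relative to control samples from duplicates, on a log2 fold-change scale.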
On to AHNAK (UniProt Q09666), for which the log2 fold change was inactive: 0.01.
With AGO2 (UniProt Q9UKV8) the figure was inactive: 0.008; with ADIPOR1 (UniProt Q96A54), inactive: 0.156; with ALG13 (UniProt Q9NP73), inactive: -0.03.
With AGTRAP (UniProt Q6RW13) the figure was inactive: 0.05; with ALG10B (UniProt Q5I7T1), inactive: 0.05.
With AKAP11 (UniProt Q9UKA4) the figure was inactive: 0.166; with AMDHD2 isoform 3 (UniProt Q9Y303), inactive: -0.004.
Take ALDOC (UniProt J3QKP5): the log2 fold change is inactive: 0.409.
With AMDHD2 (UniProt Q9Y303) the figure was inactive: 0.079; with AKAP12 (UniProt Q02952), inactive: -0.025; with ADGRV1 (UniProt Q8WXG9), inactive: -0.068.
For ALKBH2 (UniProt Q6NS38), the log2 fold change was inactive: 0.077.
The same measure for AIMP2 (UniProt Q13155): inactive: 0.113.
With ALDH7A1 (UniProt P49419) the figure was inactive: -0.009; with ALDOA isoform 2 (UniProt P04075), inactive: -0.03.
With ADGB (UniProt Q8N7X0), the log2 fold change is inactive: 0.201.
The same measure for ALKBH6 isoform 2 (UniProt Q3KRA9): inactive: -0.152; for AKR1B1 (UniProt P15121): inactive: 0.018.
The same measure for ALMS1 (UniProt Q8TCU4): inactive: 0.
With AIF1L isoform 2 (UniProt Q9BQI0) the figure was inactive: 0.202.
As to ADGRD1 isoform 4 (UniProt Q6QNK2), the log2 fold change is inactive: -0.428.
The same measure for AGPAT4 (UniProt Q9NRZ5): inactive: 0.067.
On to ALDH1L2 (UniProt Q3SY69), for which the log2 fold change is inactive: 0.034.
In the case of ALG9 isoform 3 (UniProt Q9H6U8), the log2 fold change is inactive: -0.06.
With ALOX12B (UniProt O75342) the figure was inactive: 0.015; with ADSL (UniProt P30566), inactive: -0.012; with AFG3L2 (UniProt Q9Y4W6), inactive: -0.068.
With AIDA (UniProt Q96BJ3) the figure was inactive: -0.071.
With AGK (UniProt Q53H12) the figure was inactive: 0.017.
